Data as given in PubChem BioAssay AID602196 (INSERM, 2012)
In all, the deposit lists about 23,000 reagents; below is a part drawn at random. In the full data, 455 (2%) got an active call. 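Active includes both protection and sensitisation; some change values fall well beyond the stated -50 to +50 range.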 Unmarked entries are inactive. Not all columns of the deposit are shown. The record does not give: the amount of reagent.

Purpose: 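Modifiers of cisplatin sensitivity in A549 cells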
Cells: human A549 lung cancer cells
Reagents: siRNA pair against human genes
Duration: 48 h transfection before cisplatin; time from cisplatin to read-out not stated
Challenge: cisplatin at a dose killing half of control-siRNA cells; exact dose and duration not given
Detection: 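Shift in cisplatin death relative to control siRNA, from -50 (all cells die) to +50 (no cells die); siRNAs harmful on their own scored 0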
Reading the numbers: two-siRNA summed score (-2 to +2): higher = both siRNAs protect from cisplatin killing; -2 means both sensitise
Active means: 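Each siRNA scores 0 if harmful alone by LDH or WST-1, otherwise +1 if it reduces and -1 if it increases cisplatin killing; a gene is active when both siRNAs agree (sum +2 or -2)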
Meaning of the calls: active = both siRNAs shift cisplatin killing the same way; inactive = no consistent shift, or siRNA harmful alone

Against LOC389396, the values are two-siRNA summed score (-2 to +2) = 0. LOC402626 scored two-siRNA summed score (-2 to +2) = 0. Against LOC439986, the entry reads two-siRNA summed score (-2 to +2) = 0. For TMEM72 (transmembrane protein 72), the entry reads two-siRNA summed score (-2 to +2) = 0. After knock-down of IL31RA (interleukin 31 receptor A) the results were two-siRNA summed score (-2 to +2) = 0. Against HMGN1 (high mobility group nucleosome binding domain 1) the deposit lists two-siRNA summed score (-2 to +2) = 0.

With knock-down of DUSP26 (dual specificity phosphatase 26), the record shows two-siRNA summed score (-2 to +2) = -1. Silencing of ZNF382 (zinc finger protein 382) gave: two-siRNA summed score (-2 to +2) = 0. Silencing of CCDC62 (coiled-coil domain containing 62) came out at: two-siRNA summed score (-2 to +2) = 0. For MMP9 (matrix metallopeptidase 9) the deposit lists two-siRNA summed score (-2 to +2) = -1. With knock-down of CYP2F1 (cytochrome P450 family 2 subfamily F member 1) the results were two-siRNA summed score (-2 to +2) = 0. With knock-down of TMEM87A (transmembrane protein 87A), the record shows two-siRNA summed score (-2 to +2) = 0.

For LOC440764 the deposit lists two-siRNA summed score (-2 to +2) = 0. For PAQR3 (progestin and adipoQ receptor family member 3) the deposit lists two-siRNA summed score (-2 to +2) = 0. OMA1 (OMA1 zinc metallopeptidase) gave two-siRNA summed score (-2 to +2) = 1. For OAS3 (2'-5'-oligoadenylate synthetase 3), the values are two-siRNA summed score (-2 to +2) = -1. Against DIPK1C (divergent protein kinase domain 1C), the values are two-siRNA summed score (-2 to +2) = -1. TMEM130 (transmembrane protein 130) gave two-siRNA summed score (-2 to +2) = 0.

After knock-down of C6orf141 (chromosome 6 open reading frame 141), the record shows two-siRNA summed score (-2 to +2) = 1. DES (desmin) scored two-siRNA summed score (-2 to +2) = 0. Depletion of GCK (glucokinase) resulted in: two-siRNA summed score (-2 to +2) = 0. After knock-down of EXD1 (exonuclease 3'-5' domain containing 1), the screen gave two-siRNA summed score (-2 to +2) = 0. LIG3 (DNA ligase 3) showed two-siRNA summed score (-2 to +2) = 0. Against PPP1R13B-DT (PPP1R13B divergent transcript), the entry reads two-siRNA summed score (-2 to +2) = 0.

Knock-down of DUS2 (dihydrouridine synthase 2) gave: two-siRNA summed score (-2 to +2) = 0. OR52W1 (olfactory receptor family 52 subfamily W member 1) gave two-siRNA summed score (-2 to +2) = 1. Depletion of C20orf141 (chromosome 20 open reading frame 141) resulted in: two-siRNA summed score (-2 to +2) = 1. CZ1P-ASNS (CZ1P-ASNS readthrough) showed two-siRNA summed score (-2 to +2) = 0. With knock-down of TNFRSF1B (TNF receptor superfamily member 1B), the screen gave two-siRNA summed score (-2 to +2) = -1. With knock-down of MPST (mercaptopyruvate sulfurtransferase), the screen gave two-siRNA summed score (-2 to +2) = 0.

For SS18L2 (SS18 like 2), the entry reads two-siRNA summed score (-2 to +2) = 0.

Taken from above.
Value for OMA1 (OMA1 zinc metallopeptidase) under “two-siRNA summed score (-2 to +2)”: 1
Under “two-siRNA summed score (-2 to +2)”, HMGN1 (high mobility group nucleosome binding domain 1) shows 0
Value of PAQR3 (progestin and adipoQ receptor family member 3) under “two-siRNA summed score (-2 to +2)”: 0
Result for PPP1R13B-DT (PPP1R13B divergent transcript) under “two-siRNA summed score (-2 to +2)”: 0
